# Source: PubChem BioAssay AID1671195 (Yale University, 2021)
# Test: 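Genes whose knockdown alters LDL uptake in liver cancer cells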 (primary screen)
# Cell system: human Huh7 hepatoma cells
# Reagent: siRNA pool against human genes, 18 nM
# Duration: about 2 to 2.5 days of knockdown, then 8 h LDL uptake
# Challenge: DiI-labelled LDL at 30 µg/ml for 8 h, in lipoprotein-deficient serum medium
# Measurement: 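Fluorescent LDL signal imaged in cells, scaled to the plate median, robust z-score for each replicate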
# Reading the numbers: robust z-score: higher = more LDL uptake after knockdown
# Hit rule: 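a gene counts as active if at least two replicate z-scores exceed ±2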
# The whole screen tested about 22,000 reagents; this is a random part of them. About 1,510 of them (6.9%) count as active. 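Active includes knockdowns raising or lowering LDL uptake; positive z-scores mean more uptake, negative mean less.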 No sequences are given here.
gene knocked down,"robust z-score, replicate 1","robust z-score, replicate 2","robust z-score, replicate 3",Call
UBE2H (GeneID 7328),1.14,-0.444,1.02,inactive
PHF13 (GeneID 148479),1.48,0.545,1.18,inactive
UBE4B (GeneID 10277),1.09,0.415,-0.0881,inactive
MAP1LC3C (GeneID 440738),-0.698,-0.224,-0.664,inactive
PIERCE1 (GeneID 138162),-0.228,-0.598,-0.00154,inactive
CLRN3 (GeneID 119467),-1.22,-1.05,-1.52,inactive
DPY19L2P2 (GeneID 349152),-0.893,-0.516,-0.357,inactive
IMPDH1 (GeneID 3614),0.405,0.182,0.256,inactive
PNPLA7 (GeneID 375775),0.271,0.282,0.297,inactive
PRNT (GeneID 149830),-0.447,-0.973,0.459,inactive
LINC01761 (GeneID 440594),0.093,-0.172,-0.645,inactive
WARS1P1 (GeneID 341112),0.429,-0.0336,0.0371,inactive

Next part, starting with the last 4 of the part before.
gene knocked down,"robust z-score, replicate 1","robust z-score, replicate 2","robust z-score, replicate 3",Call
PNPLA7 (GeneID 375775),0.271,0.282,0.297,inactive
PRNT (GeneID 149830),-0.447,-0.973,0.459,inactive
LINC01761 (GeneID 440594),0.093,-0.172,-0.645,inactive
WARS1P1 (GeneID 341112),0.429,-0.0336,0.0371,inactive
FBLL1 (GeneID 345630),-1.73,-1.88,-1.89,inactive
KCNC4 (GeneID 3749),-0.751,-0.977,-0.672,inactive
PDCD11 (GeneID 22984),0.869,0.921,0.919,inactive
SLC25A29 (GeneID 123096),-0.88,-1.36,-0.783,inactive
EEF1E1 (GeneID 9521),-0.136,-0.189,0.71,inactive
CCL7 (GeneID 6354),-1.17,-1.21,-0.785,inactive
ZNF619 (GeneID 285267),0.946,1.56,1.25,inactive
MARVELD2 (GeneID 153562),0.0196,-0.604,0.518,inactive
SH2D6 (GeneID 284948),2.14,1.96,1.57,active
MYO15B (GeneID 80022),1.81,2.3,0.436,inactive
TJAP1P1 (GeneID 392539),0.714,2.37,2.34,active
C12orf43 (GeneID 64897),0.848,1.32,1.08,inactive
INPP4B (GeneID 8821),-0.314,0.765,0.0989,inactive
BEST2 (GeneID 54831),0.37,0.0987,0.825,inactive
ZNF45 (GeneID 7596),-0.047,0.257,0.198,inactive
WNT10A (GeneID 80326),-0.401,-0.406,-0.637,inactive
